PubChem BioAssay AID1259424, University of Nebraska Medical Center – 2018
Test: 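Rank knockdowns across the genome by resemblance to the KSR1 depletion profile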 (primary screen). Cell system: human HCT116 colon cancer cells. Reagents: siRNA pool against human genes, 50 nM. Read-out: 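Six signature mRNAs by branched-DNA multiplex assay, scaled to two housekeeping genes and non-targeting median, log2; matched to mean KSR1 knockdown profile by Pearson correlation and euclidean distance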. Scale: mean correlation with KSR1 profile: higher = expression change more like KSR1 knockdown.
The whole screen tested about 14,000 reagents; this is a random part of them. 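Higher correlation or smaller distance means closer resemblance to KSR1 loss; control wells, including KSR1 knockdowns, recur on many plates.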 A reagent listed more than once was tested more than once; the source does not tell the runs apart. Not all columns of the deposit are shown. Not stated in the record: the time to read-out.

ETFB (GeneID 2109): mean correlation with KSR1 profile = 0.207
CHML (GeneID 1122): mean correlation with KSR1 profile = 0.0249
IBTK (GeneID 25998): mean correlation with KSR1 profile = -0.415
IBTK (GeneID 25998): mean correlation with KSR1 profile = -0.2

2 consecutive entries already listed, quoted:
ETFB (GeneID 2109): mean correlation with KSR1 profile = 0.207
CHML (GeneID 1122): mean correlation with KSR1 profile = 0.0249

Continued.
UGT1A4 (GeneID 54657): mean correlation with KSR1 profile = -0.0264
KCNQ4 (GeneID 9132): mean correlation with KSR1 profile = 0.0509
PRICKLE4 (GeneID 29964): mean correlation with KSR1 profile = -0.276
LHX6 (GeneID 26468): mean correlation with KSR1 profile = 0.435
SLC8A3 (GeneID 6547): mean correlation with KSR1 profile = -0.0502
EPS8 (GeneID 2059): mean correlation with KSR1 profile = -0.298
USP20 (GeneID 10868): mean correlation with KSR1 profile = 0.0809
GNAT1 (GeneID 2779): mean correlation with KSR1 profile = 0.76
